Laboratory results as given in PubChem BioAssay AID1671190 (National Center for Advancing Translational Sciences (NCATS), 2021).
“And” between values parts separate entries of the source, which are not always exact repeats. Identical values can stand only once. About 6,100 (1.1%) of roughly 580,000 compounds were called active. Inconclusive results, whose numbers are uncertain, are shown with a selection of clear calls. Calls follow the shape of the dose curve; as a rule, active = well fitted inhibition curve with a large enough effect; inconclusive = small, poorly fitted or top-dose-only effect, or another doubt; inactive = no such curve, though single readings can be large or run the other way. Where the call is inconclusive, the potency comes from a doubtful curve fit.

Chains of the proteins cited; added tags and fusions are not shown.
UniProt P18054, whole entry, looked up: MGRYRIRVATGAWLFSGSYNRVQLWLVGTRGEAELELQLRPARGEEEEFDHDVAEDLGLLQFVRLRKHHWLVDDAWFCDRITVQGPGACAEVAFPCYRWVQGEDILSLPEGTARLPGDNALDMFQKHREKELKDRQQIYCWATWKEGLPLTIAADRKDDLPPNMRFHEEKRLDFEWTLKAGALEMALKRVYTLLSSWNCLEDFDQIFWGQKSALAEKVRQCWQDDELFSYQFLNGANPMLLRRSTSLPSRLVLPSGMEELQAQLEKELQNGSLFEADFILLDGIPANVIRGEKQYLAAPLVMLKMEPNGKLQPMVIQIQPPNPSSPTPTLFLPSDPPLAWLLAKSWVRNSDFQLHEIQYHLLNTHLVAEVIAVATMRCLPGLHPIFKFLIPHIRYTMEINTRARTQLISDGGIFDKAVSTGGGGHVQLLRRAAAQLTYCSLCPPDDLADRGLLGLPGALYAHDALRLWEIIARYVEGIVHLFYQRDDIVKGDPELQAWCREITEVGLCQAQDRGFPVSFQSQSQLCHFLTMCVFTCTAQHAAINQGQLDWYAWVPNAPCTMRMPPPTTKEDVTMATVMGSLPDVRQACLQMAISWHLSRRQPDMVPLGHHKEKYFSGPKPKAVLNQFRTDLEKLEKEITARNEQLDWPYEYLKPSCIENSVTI

biological target: Polyunsaturated fatty acid lipoxygenase ALOX12 (Homo sapiens) (UniProt P18054); assay: Primary qHTS assay for inhibitors of human arachidonate 12S-lipoxygenase (ALOX12): Round 2; settings: purified 12hLO, xylenol orange hydroperoxide absorbance; series mostly up to 108 µM
Procedure, shortened: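 Hydroperoxide product was detected by ferrous iron/xylenol orange as the 573 to 405 nm absorbance ratio. Arachidonic acid at 40 uM (final) was turned over for 30 min at room temperature by 150 nM human 12hLO, pH 7.0 Hepes buffer, after 15 min compound preincubation.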
Potency is read from the fitted curve at half-maximal effect.

SMILES | Potency
O=S(=O)(Nc1ncccn1)c1ccc(NC(=S)NCCc2ccc(Cl)cc2)cc1 | inconclusive: 28.2 µM [inhibitor, partial curve, poor fit]
c1ccc(OCc2nn3c(Cn4cnc5ccccc54)nnc3s2)cc1 | inconclusive: 44.7 µM [inhibitor, partial curve]
COc1ccc(Cl)cc1NC(=O)COc1ccccc1F | inactive
COc1cc(NC(=O)c2ccc3c(c2)NC(=O)CS3)cc(OC)c1OC | inconclusive: 39.8 µM [inhibitor, partial curve, poor fit]
CCOC(=O)N1CCN(C(=O)C[C@@H]2C[C@@]3(C(=O)OCC)CCC=C3N(Cc3cccc4ccccc34)C2=O)CC1 | inconclusive: 141 µM [inhibitor, single point]
CCn1ccnc1C(O)c1ccccc1OC (stereo not given) | inconclusive: 35.5 µM [inhibitor, partial curve, poor fit]
COc1cc2c(cc1OC)[C@H](Cc1ccc(O)cc1)NCC2 | inconclusive: 35.5 µM [inhibitor, partial curve, poor fit]
O=C(Cc1c[nH]c2ccccc12)NCC(=O)N1CCN(c2ccccc2)CC1 | inactive
Cc1ccc(S(=O)(=O)Cc2sc3ccccc3[n+]2C)cc1 | inconclusive: 0.562 µM [inhibitor, full curve]
O=C(c1ccccc1)C(CCc1ccccn1)CCc1ccccn1 | inactive
COc1cc(-c2csc(NC3CC3)n2)cc(OC)c1OC | inconclusive: 39.8 µM [inhibitor, partial curve, poor fit]
C[n+]1ccccc1/C=C/c1ccc2ncccc2c1 | inconclusive: 39.8 µM [inhibitor, partial curve]
O=S(=O)(c1ccc2nc(Cc3ccccc3)[nH]c2c1)N1CCOCC1 | inconclusive: 6.31 µM [inhibitor, full curve, poor fit]
Cc1nn(-c2nc3c(c(=O)n(CC(=O)C(C)(C)C)c(=O)n3C)n2C(C)C)c(C)c1C | inactive
Cc1ccc(C(C)NC(=O)c2ccc(Br)s2)cc1 (stereo not given) | inconclusive: 39.8 µM [inhibitor, partial curve, poor fit]
Cc1cc(C(C)(C)C)oc1C(=O)NCCCNC(=O)c1oc(C(C)(C)C)cc1C | inactive
COc1ccc(NC(=O)CCC(=O)Nc2nnc(C3CCCCC3)s2)c(OC)c1 | inactive
CC(C)c1nc(-c2ccccc2NS(=O)(=O)c2ccccc2Br)n[nH]1 | inconclusive: 22.4 µM [inhibitor, partial curve, poor fit]
Cc1ccc(NC(=O)C(Cc2ccccc2)n2cccc2)cc1 (stereo not given) | inconclusive: 63.1 µM [inhibitor, partial curve, poor fit]
CC1(C(=O)NS(=O)(=O)c2cccc(F)c2)CCN1C(=O)CC1CCCCC1 (stereo not given) | inconclusive: 44.7 µM [inhibitor, partial curve]
COc1ccccc1CNC(=O)C1CCCN(C(=O)c2cnn(-c3ccc(F)cc3)c2-n2cccc2)C1 (stereo not given) | inactive
O=C(NC1CCCCC1)N1CCc2[nH]c3ccccc3c2C1 | inconclusive: 50.1 µM [inhibitor, partial curve, poor fit]

SMILES | Potency
NS(=O)(=O)c1ccc(NC(=O)CN2CCCN(S(=O)(=O)c3ccc(F)cc3)CC2)cc1 | inactive
CCOC(=O)c1cc(-c2c(Cl)cccc2Cl)no1 | inactive
CN1CCN(S(=O)(=O)c2ccc(N(C)Cc3c(F)cccc3Cl)nc2)CC1 | inconclusive: 126 µM [inhibitor, single point]
OCCN1CCN(CCCN2c3ccccc3Sc3ccc(C(F)(F)F)cc32)CC1 | inconclusive: 8.63 µM [inhibitor, full curve] and inconclusive: 50.1 µM [inhibitor, partial curve, poor fit]
COc1ccc(CNC(=O)Cn2ncc3c4ccccc4n(Cc4cccc(Cl)c4)c3c2=O)cc1 | inconclusive: 35.5 µM [inhibitor, partial curve, poor fit]
Cc1ccc(C(=O)N/C(=C\c2cn(C)c3ccccc23)C(=O)N2CCOCC2)cc1 | inconclusive: 20 µM [inhibitor, partial curve, poor fit]
COC(=O)/C(=C\C(=O)c1ccccc1)Nc1ccc(OC)cc1 | inconclusive: 39.8 µM [inhibitor, partial curve, poor fit]
CC(=O)N(C)CCCNC(=O)c1nc2ccccc2c(=O)[nH]1 | inconclusive: 2.24 µM [inhibitor, full curve, poor fit]
CCN(CC)S(=O)(=O)c1cc(NS(=O)(=O)c2cc(Cl)ccc2Cl)ccc1C | inconclusive: 44.7 µM [inhibitor, partial curve]
Cc1ccc(-n2c(-c3ccc(Br)cc3)n[nH]c2=S)c(C)c1 | inconclusive: 50.1 µM [inhibitor, partial curve, poor fit]
CCOc1ccc(CCNC(=O)COC(=O)c2ccc[nH]c2=O)cc1OCC | inconclusive: 39.8 µM [inhibitor, partial curve, poor fit]
COc1ccc(C)cc1NC(=O)c1ccc2c(=O)n3c(nc2c1)CCCCC3 | inactive
Cc1csc(NC(=O)c2cc(C)oc2C)n1 | inactive
COc1ccc(-c2cnc(NCc3cc4c(cc3[N+](=O)[O-])OCO4)n2C)cc1 | inconclusive: 3.55 µM [inhibitor, full curve, poor fit]
CCC(C)(C)NC(=O)c1ccc2c(c1)N(CC(=O)NC1CCCC1)C(=O)C(C)(C)O2 | inactive
CC(C)CC(COCc1cccc(Cl)c1)N1CCN(C(=O)c2cccc(C(F)(F)F)c2)CCC1=O (stereo not given) | inactive
CCOC(=O)c1sc(NC(=S)NC(=O)C23CC4CC(CC(C4)C2)C3)cc1C | active: 35.5 µM
CCOC(=O)CN(C(=O)CNC(=O)c1cccs1)C(C(=O)NC1CCCC1)c1ccncc1 (stereo not given) | inconclusive: 50.1 µM [inhibitor, partial curve, poor fit]
COCC(C)NS(=O)(=O)c1cc(C)ccc1C (stereo not given) | inconclusive: 50.1 µM [inhibitor, partial curve, poor fit]
Cc1cc(C)nc(NC(=S)Nc2ccccc2)n1 | inactive
O=C1CC(N2CCOCC2)C=C1Nc1ccccc1 (stereo not given) | inconclusive: 44.7 µM [inhibitor, partial curve, poor fit]
Nc1nc(SCc2ccccc2)c2[nH]cnc2n1 | inactive

SMILES | Potency
COc1ccc(C(=O)NCCn2cc(SCC(=O)Nc3ccc(C)cc3)c3ccccc32)cc1 | inactive
CCC(C)[C@H](NC(=O)C1CCC(Cn2nnc3ccccc3c2=O)CC1)C(=O)O (stereo not given in full) | inactive
CC(=O)Nc1nc(-c2ccc3c(c2)CC(C)N3C(=O)C2CC2)c(C)s1 (stereo not given) | inactive
CS(=O)(=O)C1=C(O)C(=O)N(c2ccccc2)C1c1ccccc1 (stereo not given) | inconclusive: 56.2 µM [inhibitor, partial curve, poor fit]
Cc1ccc2c(COC(=O)c3cccs3)cc(=O)oc2c1 | inconclusive: 50.1 µM [inhibitor, single point]
Cn1c(=O)c2c(-c3ccc(Cl)cc3)n(Cc3ccc(Cl)cc3)cc2n(C)c1=O | inconclusive: 50.1 µM [inhibitor, partial curve, poor fit]
Cc1ccnc(NC(=O)c2nccnc2N)c1 | inactive
CCOc1cc(C(=S)N2CCCC2)ccc1O | inconclusive: 35.5 µM [inhibitor, partial curve, poor fit]
COCCOc1ccc(-c2nc(C)ccc2OC)cc1 | inactive
COC(C[C@@H](O)CC(=O)[C@@H](C)OCc1ccccc1)OC | inconclusive: 89.1 µM [inhibitor, single point]
CCN(CC)S(=O)(=O)c1ccc(N(C)C)c(NS(=O)(=O)c2cccs2)c1 | inconclusive: 31.6 µM [inhibitor, partial curve, poor fit]
CC(C)c1ccc(NC(=S)NC2CC3C=CC2C3)cc1 (stereo not given) | inconclusive: 20 µM [inhibitor, full curve, poor fit]
O=C(O)CC(CC(=O)N1CCN(C(=O)c2ccco2)CC1)c1ccccc1 (stereo not given) | inconclusive: 89.1 µM [inhibitor, single point]
O=C(c1ccc(Cl)cc1)N1CCC(N2CCCCC2=O)CC1 | inconclusive: 112 µM [inhibitor, partial curve, poor fit]
COc1cccc(CNC(=O)C(CC(C)C)NS(=O)(=O)c2ccc3c(c2)oc(=O)n3C)c1 (stereo not given) | inconclusive: 112 µM [inhibitor, partial curve, poor fit]
Cc1c(OS(C)(=O)=O)ccc2c3c(c(=O)oc12)CCCC3 | inconclusive: 44.7 µM [inhibitor, partial curve, poor fit]
COc1cccc(Nc2cc(C)nc3ccc(Cl)cc23)c1 | inconclusive: 50.1 µM [inhibitor, partial curve, poor fit]
Cc1ccc(C2CC2C(=O)NNC(=S)Nc2cccc(Cl)c2)cc1 (stereo not given) | inconclusive: 35.5 µM [inhibitor, partial curve, poor fit]
Nc1nc(N)c2[nH]c(-c3ccccc3)nc2n1 | inconclusive: 28.2 µM [inhibitor, partial curve, poor fit]
Cc1cc2oc(=O)cc(CN3CCN(C/C=C/c4ccccc4)CC3)c2cc1O | inactive and inconclusive: 79.4 µM [inhibitor, single point] and inconclusive: 63.1 µM [inhibitor, partial curve, poor fit]
C[C@@H]1CC=C[C@@H]2[C@H]1C(=O)N(Cc1ccccc1)[C@H]2c1cccc(Br)c1 | inconclusive: 31.6 µM [inhibitor, partial curve]
